Data reported in patent US20190093170A1, “USE OF TRANSLATIONAL PROFILING TO IDENTIFY TARGET MOLECULES FOR THERAPEUTIC TREATMENT” (THE REGENTS OF THE UNIVERSITY OF CALIFORNIA, priority 2013, published 2019).

Tests used:
[1] = test system: PC3 human prostate cancer cells; assay: Ribosome profiling: translational efficiency (ribosome footprint vs RNA-seq read density); format: cell-based; settings: log2≤−1.5 (false discovery rate <0.05), PP242 as compared to rapamycin treatment, 3 hr;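 further: Per-gene footprint-to-mRNA density ratio averaged per codon over the coding sequence, scaled so the median gene equals 1.0 after excluding regulated genes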
[2] = test system: 4EBP1, p70S6K1/2 and AKT; assay: Western blot of downstream mTOR effectors in PC3 cells; format: cell-based, human; settings: rapamycin (50 nM), PP242 (2.5 μM), 3 hours

CC(C)n1nc(-c2cc3cc(O)ccc3[nH]2)c2c(N)ncnc21 [PP242]
number of target mRNAs selectively decreased at the translational level [1]: 144
activity of the three primary downstream mTOR effectors 4EBP1, p70S6K1/2 and AKT [2]: significantly inhibited
